EP0085866A1, “Derivatives of benzo-1,2-thiazine-1,1-dioxide, a process for their preparation and pharmaceutical compositions containing the same” (priority 1982, dated 1983)

Test system: gastric mucosa
Experiment: Gastrolesive activity (macroscopic control of the gastric mucosa)
Assay type: in vivo, Crl: CD(SD) male rats
Details: therapeutic index relative to piroxicam of the same session considered as 1
Excerpt: On the ground of such lines the calculation of UD3 values, that is a dose whereby a gastric lesion of the total extension of 3 mm is expected, has been performed.

Structure (SMILES)	Relative therapeutic index
CN1C(C(=O)Nc2ccccn2)=C(OC(=O)C(C)(C)C)c2ccccc2S1(=O)=O [CHF 1021, 4-Pivaloyloxy-2-methyl-2H-1,2-benzothiazine-3-[N-(2-pyridyl)-carboxamide]-1,1-dioxide]	10.25
CCCC(=O)OC1=C(C(=O)Nc2ccccn2)N(C)S(=O)(=O)c2ccccc21 [CHF 1115]	1.50
CN1C(C(=O)Nc2ccccn2)=C(O)c2ccccc2S1(=O)=O [piroxicam, reference compound]	1
CN1C(C(=O)Nc2nccs2)=C(OC(=O)C(C)(C)C)c2ccccc2S1(=O)=O [CHF 1047, 4-pivaloyloxy-2-methyl-2H-1,2-benzothiazine-3-[N-(2-thiazolyl)-carboxamide]-1,1-dioxide]	0.07
CCCCC(=O)OC1=C(C(=O)Nc2ccccn2)N(C)S(=O)(=O)c2ccccc21 [CHF 1109]	1.43
